The record followed here is PMC7615117, “DNSN-1 recruits GINS for CMG helicase assembly during DNA replication initiation in C. elegans” (Science (New York, N.Y.), 2023).

Results are given in words; binding and its absence hold for the method and conditions named. In cells and extracts the contact can be indirect. A yes stands for co-enrichment or nearness to the bait. Other partners may have been found. For part of these data: Tags and fused reporters may be left off the sequences shown.

One assay concerns the target T1, GFP-PSF-1 (C. elegans) (UniProt Q22019).
T1 sequence: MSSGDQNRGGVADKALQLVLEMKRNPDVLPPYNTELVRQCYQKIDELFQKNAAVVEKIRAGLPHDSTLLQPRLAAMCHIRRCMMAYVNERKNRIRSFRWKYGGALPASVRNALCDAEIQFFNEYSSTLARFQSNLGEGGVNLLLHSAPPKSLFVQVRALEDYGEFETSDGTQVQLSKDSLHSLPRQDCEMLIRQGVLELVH
In words: co-IP + affinity purification with mass spectrometry; GFP-tagged bait isolated on anti-GFP beads (GFP-Trap) from C. elegans embryo extracts, 4°C, 100 mM HEPES-KOH pH 7.9, 100 mM potassium acetate, DNA digested with nuclease; worms untreated or fed RNAi (cdc-45, npl-4, ctf-4, tim-1, clsp-1); immunoblotting and mass spectrometry. On the technique in general: Immunoblotting shows a protein as a band on a membrane.

The next assay has as its target T2, TAP-PSF-1 (C. elegans) (UniProt Q22019).
T2 sequence: T1 sequence
In words: affinity purification with mass spectrometry; TAP-PSF-1 isolated from C. elegans embryo extracts on beads coupled to rabbit IgG; worms fed RNAi (Table S3).

On to “DNSN-1 (C. elegans (endogenous in embryos))”, for which the binding entry in the assay with GFP-PSF-1 (C. elegans) and in the assay with TAP-PSF-1 (C. elegans) was “binds” each time.

For the substance “MUS-101 (C. elegans (endogenous in embryos))”, in the assay with GFP-PSF-1 (C. elegans), the binding result is reported as “binds”.
